PubChem BioAssay AID1671195 | Yale University, 2021
Test: 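Regulators of LDL receptor activity judged by labelled LDL uptake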 (primary screen). System: human Huh7 hepatoma cells. Reagents: siRNA pool against human genes, 18 nM. Timing: about 2 to 2.5 days of knockdown, then 8 h LDL uptake. Challenge: DiI-labelled LDL at 30 µg/ml for 8 h, in lipoprotein-deficient serum medium. Detection: 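Fluorescent LDL signal imaged in cells, scaled to the plate median, robust z-score for each replicate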. Reading the numbers: robust z-score: higher = more LDL uptake after knockdown. Call rule: 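Active when two or more replicates show a robust z-score above 2 or below -2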.
The deposit covers about 22,000 reagents; shown is an unselected part. Over the whole deposit, about 1,510 (6.9%) got an active call. 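Active includes knockdowns raising or lowering LDL uptake; positive z-scores mean more uptake, negative mean less.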 Unmarked entries are inactive. Reagents against one gene are numbered here.

no.	Target gene	pool no.	robust z-score, replicate 1	robust z-score, replicate 2	robust z-score, replicate 3
1	SETMAR	1	-0.716	0.702	0.71
2	METTL14	1	-0.51	0.266	1.83
3	OR13F1	1	0.352	-0.074	-0.247
4	VMA22	1	-0.973	-0.851	-1.07
5	ZBTB44	1	-1.87	0.145	-0.153
6	GABRD	1	0.378	0.161	0.688
7	MARF1	1	1.81	-0.152	0.376
8	MOB1A	1	-0.485	-0.858	-1.59
9	ZNF436-AS1	1	-0.699	-0.82	-0.714
10	EMILIN3	1	1.39	0.219	1.44
11	DLGAP5	1	-0.63	-0.259	1.51
12	TUSC8	1	0.502	0.359	-0.334
13	SPMIP3	1	-1.72	-1.28	-1.29
14	MLLT1	1	0.498	0.107	1.69
15	MLLT1	2	-1.13	-0.399	-1.04
16	ZNF771	1	-0.143	-1.06	0.492
17	KCNJ15	1	1.09	0.322	0.936
18	MGC16384 (retired record)	1	-1.11	-1.03	-0.831
19	KDM4D	1	-0.0273	0.81	0.43
20	MDH1B	1	-0.0326	0.0485	0.386
21	LOC389269 (retired record)	1	-0.617	-0.947	-0.605
22	ASB2	1	-2.13 (active)	-2.3	-2.24
23	PRKX	1	-1.2	-1.19	0.119
24	ZNF805	1	-0.871	-0.39	-0.701
25	CYP4F22	1	-1.25	-1.82	-1.75
26	THAP6	1	-0.762	-0.52	-1.02
27	RPSAP56	1	-2.45 (active)	-2.66	-2.89
28	DLD	1	-1.11	-0.974	-0.916
